The experiment in a line: qHTS Assay for Modulators of Lamin A Splicing. The conditions noted are these: HeLa LMNA splicing GFP/RFP minigene ratio, 48 h. Summed up:
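Read-out is the ratio of GFP to DsRed2 object intensity, acquired by 488 nm laser-scanning cytometry on HeLa lamin A-EGFP minigene reporter cells. Compound incubation 48 hrs at 37 °C in Opti-MEM with 2% FBS; DMSO 0.5% final.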
On the technique in general: In qHTS, concentration-response curves come from the screen itself.

Where [1] appears, read: measured here: RFP viability control channel.
[2] abbreviates: measured here: GFP splicing reporter channel.

The other results are listed elsewhere or left out. Shown are side measurements of this screen, not its main read-out; they come without a call. Compounds called inactive in the main read-out are mostly missing here. The note in brackets gives the kind of curve behind each potency; many fits are weak.

In general, AC50 refers to the concentration giving half of the maximal activity seen.

With `COc1ccccc1NC(=O)CCCn1c(=S)[nH]c2ccccc2c1=O`, under setting [1], the AC50 was 0.00355 µM [falling, full curve, poor fit]. The same measure, in the same setting: next, `O=C(NCCC1=CCCCC1)c1ccc(Cl)c(S(=O)(=O)Nc2ccccc2)c1`: 8.91 µM [rising, partial curve]. As to `O=C(NCCc1ccc(Cl)cc1)c1ccc(CS(=O)(=O)c2ccc(Cl)cc2)o1`, the AC50 under setting [2] is 35.5 µM [falling, single point]. As for `O=C(CSCCc1ccccn1)Nc1cccnc1`, the AC50 reads like this: under setting [2], 5.62 µM [falling, single point]; under setting [1], 5.62 µM [falling, single point]. `O=C1S/C(=C\C=C\c2ccco2)C(=O)N1c1ccccc1`: under setting [1], the concentration at half-maximal activity (AC50) is 35.5 µM [rising, single point]. Take `CC(C)(C)c1ccc(Cn2nnc3c(=O)[nH]c(C4CCN(C(=O)Cc5cccs5)CC4)nc32)cc1`: the AC50 by setting is: under setting [2], 15.8 µM [rising, single point]; under setting [1], 14.1 µM [rising, single point]. Regarding `c1ccc(CN=C2NN=C(c3cc4ccccc4o3)CS2)cc1`, the concentration at half-maximal activity (AC50) reads like this: under setting [2], 15.8 µM [falling, single point]; under setting [1], 14.1 µM [falling, single point].

As for `COc1ccc(Nc2nnc(-c3ccc(C)cc3)c3ccccc23)cc1C(=O)N1CCCCC1`, under setting [1], the AC50 is 35.5 µM [rising, single point]. As for `Cc1ccc2cc(CN(Cc3ccccc3)Cc3nnnn3C3CCCC3)c(=O)[nH]c2c1`, the AC50 under setting [1] was 20 µM [rising, single point].

Take `COc1ccccc1/C=N/NC(=O)c1ccc(NC(=O)c2ccccc2Br)cc1`: the half-maximal activity concentration (AC50) under setting [1] was 3.16 µM [falling, partial curve].

For `O=C(CSc1nnc(Nc2ccccc2)s1)Nc1ccc(S(=O)(=O)N2CCOCC2)cc1`, the half-maximal activity concentration (AC50) under setting [1] was 31.6 µM [rising, single point]. For the compound `CCN1CCc2c(sc(-n3cccc3)c2C(C)NC(=O)Nc2ccc(Br)cc2)C1` (stereo not given), the AC50 under setting [2] is 11.2 µM [rising, partial curve, poor fit]. For the compound `COc1cccc(Nc2nnc(SCc3nc4ccccc4s3)s2)c1`, the AC50 is 35.5 µM [rising, single point] under setting [2] and 25.1 µM [rising, single point] under setting [1]. `Cc1ccc(C(=O)N(Cc2ccccc2)C(C)(C)C)cc1C`: the AC50 under setting [1] is 14.1 µM [rising, single point]. `COc1ccc(N(Cc2cccs2)C(=O)c2ccc(OC)c(Cl)c2)cc1`: the AC50 under setting [1] was 22.4 µM [rising, partial curve]. `Cc1[nH]n(-c2cccc(Cl)c2)c(=O)c1-c1ccc(Cl)cc1`: the AC50 reads like this: under setting [2], 2.82 µM [rising, partial curve, poor fit]; under setting [1], 4.47 µM [rising, single point]. Turning to `Cc1cccc(CNc2ccnc(-c3ccc(N(C)C)cc3)n2)c1`, the half-maximal activity concentration (AC50) is 20 µM [falling, single point] under setting [2] and 35.5 µM [falling, single point] under setting [1]. For `O=C(Cc1cccs1)N1CCN=C1SCc1ccc(Br)cc1`, the concentration at half-maximal activity (AC50) was 2.82 µM [rising, full curve] under setting [2] and 15.8 µM [rising, partial curve] under setting [1]. Consider `Cc1ccc(C(C(=O)NC2CCCCC2)N(Cc2ccco2)C(=O)Cc2c[nH]c3ccccc23)o1` (stereo not given), for which the AC50 is 25.1 µM [rising, single point] under setting [2] and 35.5 µM [rising, single point] under setting [1]. With `COc1cccc(N2CCN(C(=O)C3CCN(S(=O)(=O)c4c(C)noc4/C=C/c4ccccc4F)CC3)CC2)c1`, the AC50 under setting [2] was 3.98 µM [falling, full curve, poor fit]. Turning to `c1ccc(-c2cc(N3CCOCC3)nc3ccccc23)cc1`, the concentration at half-maximal activity (AC50) is 12.6 µM [rising, partial curve] under setting [2] and 25.1 µM [rising, partial curve] under setting [1]. As for `CCc1nn2cc(C(=O)c3cc(C)ccc3O)cnc2c1-c1ccc(F)cc1`, under setting [1], the AC50 is 2.82 µM [rising, partial curve, poor fit]. With `c1ccc(C[n+]2c(-c3ccccc3)csc2Nc2ccccc2)cc1`, the AC50 under setting [1] is 35.5 µM [rising, single point]. As for `Fc1ccccc1/C=N/n1cnnc1`, the AC50 reads like this: under setting [2], 5.01 µM [falling, single point]; under setting [1], 5.01 µM [falling, partial curve].

For the compound `Cc1cc2c(cc1C)CSC(c1ccccc1OC(=O)C(C)(C)C)SC2`, under setting [1], the AC50 was 17.8 µM [rising, single point].

With `CCS(=O)(=O)N1CCN(C(=O)c2ccc(-c3ccccc3)cc2)CC1`, the AC50 under setting [2] was 12.6 µM [rising, single point] and the concentration at half-maximal activity (AC50) under setting [1] was 17.8 µM [rising, partial curve]. `COc1ccc(C2CC(c3cccs3)=NN2C(=O)CSc2nncs2)cc1OC` (stereo not given): under setting [1], the AC50 was 5.62 µM [falling, single point]. For the compound `COc1ccc(-c2nc3scc(CCNS(=O)(=O)c4ccc(F)cc4C)n3n2)cc1`, the AC50 under setting [1] is 0.0141 µM [falling, full curve, poor fit]. The same measure, in the same setting: the same measure for `Cc1ccccc1N1CCN(C(=O)c2ccc(Oc3ccc(C(F)(F)F)cn3)cc2)CC1`: 20 µM [rising, single point]. In the case of `CCOC(=O)Cc1csc(NC(=O)CCc2ccc(S(=O)(=O)N3CCOCC3)cc2)n1`, the AC50 is 17.8 µM [rising, partial curve, poor fit] under setting [2] and 25.1 µM [rising, single point] under setting [1].

In the case of `Cc1nc(NC(=O)CSc2nnc(-c3ccccc3)c(-c3ccccc3)n2)c(Cl)cc1Cl`, under setting [1], the AC50 was 15.8 µM [rising, single point].

Turning to `COc1ccc(NC(=S)N/N=C2\CC(C)(C)Oc3ccc(O)cc32)cc1`, the AC50 under setting [1] was 5.62 µM [rising, partial curve, poor fit]. With `Cc1ccc(-c2ccc(=O)n(CCC(=O)NCCc3ccccc3)n2)cc1`, under setting [2], the AC50 is 3.98 µM [falling, single point].

For `Cc1ccc(S(=O)(=O)/C(C#N)=C/c2c[nH]c3ccccc23)cc1`, the half-maximal activity concentration (AC50) was 35.5 µM [rising, single point] under setting [2] and 35.5 µM [rising, single point] under setting [1]. In the case of `O=C1C(Nc2ccccc2)=C/C(=N/S(=O)(=O)c2cccs2)c2ccccc21`, the AC50 is 3.98 µM [falling, full curve] under setting [2] and 5.01 µM [falling, full curve] under setting [1]. In the case of `CCCCC(NS(=O)(=O)c1ccc(C)cc1)C(=O)Oc1ccc2c3c(c(=O)oc2c1)CCC3` (stereo not given), under setting [1], the AC50 is 12.6 µM [rising, partial curve]. With `COc1ccc2c(c1)sc(N)[n+]2Cc1cc(C)cc2cccnc12`, the AC50 under setting [1] is 2.51 µM [rising, partial curve].

In the case of `O=C(O)[C@H]1C(=CCO)O[C@H]2CC(=O)N12`, the concentration at half-maximal activity (AC50) is, setting by setting: under setting [2], 0.0355 µM [falling, full curve, poor fit]; under setting [1], 0.0398 µM [falling, full curve, poor fit]. Regarding `Cc1nc2c([nH]c3ccc(Br)cc32)s1`, under setting [2], the half-maximal activity concentration (AC50) is 20 µM [rising, partial curve]. In the case of `O=C(/C=C/c1c[nH]c2ccccc12)c1cccc2ccccc12`, the AC50 is, setting by setting: under setting [2], 8.91 µM [falling, partial curve, poor fit]; under setting [1], 22.4 µM [falling, partial curve].

For `CCCc1nn2c(=O)cc(COC(=O)c3ccc(NC(=O)COc4ccccc4)cc3)nc2s1`, under setting [1], the AC50 was 0.0316 µM [falling, full curve, poor fit]. As for `CCc1cccc2c(C(=O)C(F)(F)F)cn(CC(=O)N3CCOCC3)c12`, the AC50 under setting [1] was 0.0178 µM [rising, full curve, poor fit].

Regarding `COc1ccc(CNC(=O)COC(=O)CCOc2ccccc2)cc1`, the AC50 was 6.31 µM [rising, single point] under setting [2] and 5.01 µM [rising, single point] under setting [1]. In the case of `O=C(N/N=C\c1ccc(-c2ccc([N+](=O)[O-])cc2)o1)C1COc2ccccc2O1` (stereo not given), the half-maximal activity concentration (AC50) under setting [1] was 35.5 µM [rising, single point]. On the same count and under the same terms, the same measure for `CCC1CCCCN1c1nc2c(C=O)c(C)nn2c2ccccc12` (stereo not given): 7.08 µM [rising, partial curve, poor fit]; for `O=C(Cc1ccccc1F)Nc1nc2ccccc2[nH]1`: 0.158 µM [rising, full curve, poor fit]. Still for that read-out and setting: the same measure for `C[C@@H](C(=O)Nc1ccc2ccccc2c1)[C@H]1C[C@]1(C)[C@H](NC(=O)c1cccnc1)c1ccccc1`: 14.1 µM [rising, partial curve]. On to `Cc1nonc1C1CCCN1Cc1nc(-c2ccccc2Cl)oc1C` (stereo not given), for which the concentration at half-maximal activity (AC50) was 35.5 µM [falling, partial curve, poor fit] under setting [2] and 35.5 µM [falling, partial curve] under setting [1]. For `Clc1ccc(-n2ncc3c(NCc4cccs4)ncnc32)cc1`, the AC50 under setting [1] was 11.2 µM [rising, partial curve].

On to `Cc1nc2cncnc2n(Cc2ccccc2)c1=O`, for which, under setting [1], the AC50 is 10 µM [rising, partial curve]. Regarding `Clc1cccc(CN2CCC(Cc3ccccc3)CC2)c1`, the AC50 under setting [2] was 12.6 µM [rising, partial curve, poor fit]. Turning to `COc1cccc(CNc2cc(CSc3ccc(Cl)cc3)nc(C)n2)c1`, the concentration at half-maximal activity (AC50) is 12.6 µM [rising, single point] under setting [2] and 12.6 µM [rising, single point] under setting [1].

With `Cn1cccc1C(=O)OCC(=O)Nc1ccc2c(c1)CCC2`, under setting [2], the AC50 was 1.58 µM [rising, partial curve, poor fit].

`CCOC(=O)C1=c2/c(=C/c3ccncc3)c(N)c(C(=O)OC)n2C(=O)C(c2ccncc2)S1` (stereo not given): the concentration at half-maximal activity (AC50) under setting [2] is 0.0891 µM [falling, full curve, poor fit]. Take `Cn1c(/C=N/NC(=O)c2ccccc2)nc2ccccc21`: the AC50 under setting [2] is 10 µM [falling, partial curve]. On to `CCOC(=O)c1cnc(-n2nc(C)cc2C)nc1N(CC)CC`, for which the concentration at half-maximal activity (AC50) under setting [1] was 12.6 µM [rising, single point].

The record behind these values is PubChem BioAssay AID1487 (National Center for Advancing Translational Sciences (NCATS), 2009).
